{"sequences": {"note": "Protein sequences, listed by entry. Tags and fused reporters are not part of them. Lines headed by an entry give the natural chain unless they say otherwise; changes in a name come on top.", "UniProt Q16254": "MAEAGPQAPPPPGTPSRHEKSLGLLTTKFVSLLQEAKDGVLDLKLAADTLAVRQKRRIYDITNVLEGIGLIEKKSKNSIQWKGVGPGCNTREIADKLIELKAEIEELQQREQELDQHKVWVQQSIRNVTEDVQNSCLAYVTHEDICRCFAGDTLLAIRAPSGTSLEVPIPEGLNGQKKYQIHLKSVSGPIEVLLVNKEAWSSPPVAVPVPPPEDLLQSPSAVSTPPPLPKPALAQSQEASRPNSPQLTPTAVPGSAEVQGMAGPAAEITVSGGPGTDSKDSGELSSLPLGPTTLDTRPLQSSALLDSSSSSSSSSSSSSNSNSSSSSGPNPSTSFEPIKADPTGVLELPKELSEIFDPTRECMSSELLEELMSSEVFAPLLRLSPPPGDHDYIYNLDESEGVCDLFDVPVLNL", "UniProt P46063": "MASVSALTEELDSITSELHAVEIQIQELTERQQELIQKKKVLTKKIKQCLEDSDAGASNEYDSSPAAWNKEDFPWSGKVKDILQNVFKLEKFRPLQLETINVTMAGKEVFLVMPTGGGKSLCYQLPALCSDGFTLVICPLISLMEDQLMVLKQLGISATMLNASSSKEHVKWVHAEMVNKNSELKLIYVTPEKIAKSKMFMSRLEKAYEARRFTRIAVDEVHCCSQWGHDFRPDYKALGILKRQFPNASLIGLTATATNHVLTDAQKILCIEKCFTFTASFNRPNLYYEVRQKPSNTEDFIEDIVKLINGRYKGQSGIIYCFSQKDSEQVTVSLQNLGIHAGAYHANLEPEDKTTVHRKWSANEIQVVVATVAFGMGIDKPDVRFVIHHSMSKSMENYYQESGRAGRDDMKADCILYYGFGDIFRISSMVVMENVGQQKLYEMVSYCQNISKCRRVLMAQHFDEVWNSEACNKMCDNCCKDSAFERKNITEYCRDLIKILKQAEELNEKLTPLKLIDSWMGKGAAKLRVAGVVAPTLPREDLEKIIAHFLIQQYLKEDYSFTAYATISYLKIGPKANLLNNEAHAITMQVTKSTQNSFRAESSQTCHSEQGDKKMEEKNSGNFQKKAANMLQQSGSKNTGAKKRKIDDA"}, "source": "paper PMC10447549", "biological_target": "GST-E2f4 C-terminal fragment (amino acids 300-413) (human (ORF amplified from HCT116 mRNA)) (UniProt Q16254)", "assay": "pull-down; GST-E2f4 fusion proteins on glutathione agarose beads, washed with TNT-300 buffer, incubated 4 h with U2OS or shTrim33 U2OS whole cell lysates; immunoblot; only the target purified", "note": "Results are given in words; binding and its absence hold for the method and conditions named. In cells and extracts the contact can be indirect. Binding calls can cover weak binding; strength is not graded here."}
{"substance": "Recql (endogenous, U2OS) (from UniProt P46063 1-649)", "values": [{"measurement": "binding", "value": "binds"}]}
